Experimental data taken from patent US10092515B2, “Liposomal formulations of polymyxin B and uses thereof” (University of Houston System, priority 2012, dated 2018).
Part of at least one peptide drawing is inferred or uncertain, most often the ends. Some results were stated once for a whole list of compounds, not compound by compound. Where a SMILES comes first, the peptide text is derived from it. Bridges are numbered along the chain shown (N, C = ends). [ ]: non-standard residue; d: D form. The star is where a group is joined. X1 = CC[C@H](C)CCCCC(=O)*; Dab = NCC[C@H](N)C(=O)O

Key:
[1] = Epithelial lining fluid (ELF) pharmacokinetics after intravenous polymyxin B liposomes or aqueous solution (USP); format: in vivo, Swiss Webster mice; conditions: mice, IV solution group
Protocol: (§1) The animal protocol was approved by the University of Houston Institutional Animal Care and Use Committee. The animals received food and water ad libitum. Two groups of 24 female ND4 Swiss Webster mice (20-23 g, Harlan Laboratory, Indianapolis, Ind.) were intravenously administrated PB liposomes and aqueous solution (USP), respectively, at approximately 3 mg/kg through the tail vein. At each time point (0.1, 0.5, 1, 2, 4 and 6 h post-dose), four mice were sacrificed for blood and epithelial lining fluid sample collection. The blood samples were clotted on crushed ice and the serum was obtained by centrifugation. The epithelial lining fluid samples were obtained by bronchoalveolar lavage. All the serum and epithelial lining fluid samples were stored at −80° C. until analysis.
(§2) Four major polymyxin B components in serum and epithelial lining fluid samples were assayed by a validated UPLC-MS/MS method. […] Ten μl of supernatant was injected into the UPLC-MS/MS for quantitative analysis. […]
(§3) Concentrations of urea in serum and BALF samples were quantified with a commercially available assay kit (Quantichrom™ Urea Assay kit, BioAssay System, Hayward, Calif.) and measured on a Synergy2 microplate reader (BioTek Instrument, Winooski, Vt.). […] Statistical differences between liposome and aqueous solution were determined by Mann-Whitney test at the significance level of p≤0.05.

[2] = Serum pharmacokinetics after intravenous polymyxin B liposomes or aqueous solution (USP); format: in vivo, Swiss Webster mice; conditions: mice, IV polymyxin B liposomes
Protocol: as §1, §2, §3

## CC[C@H](C)CCCCC(=O)N[C@@H](CCN)C(=O)N[C@H](C(=O)N[C@@H](CCN)C(=O)N[C@H]1CCNC(=O)[C@H]([C@@H](C)O)NC(=O)[C@H](CCN)NC(=O)[C@H](CCN)NC(=O)[C@H](CC(C)C)NC(=O)[C@@H](Cc2ccccc2)NC(=O)[C@H](CCN)NC1=O)[C@@H](C)O [PB1, polymyxin B1] (X1-[Dab]T[Dab][Dab][Dab][dF]L[Dab][Dab]T; lactam 4-C)
[1]
  time post-dose up to which the component could be quantified in ELF: up to 4 h
[2]
  Cl (clearance): 7.4017 mL/min/kg
  Vss (volume of distribution at steady state): 0.3829 L/kg
